Measured values published in patent US20250319162A1, “METHODS AND MATERIALS FOR TREATING OBESITY” (Regents of the University of California, priority 2024, published 2025).
At least one compound was matched to its structure with a doubt left.

Tested on: Drp1 S637 phosphorylation in HEK293T cells
Test: In vitro dephosphorylation assay in HEK293T cells co-transfected with PP2A and Drp1
Type: cell-based
Details: 20 μM forskolin for 1 h

C=C[C@@]1(C)CC(=O)[C@]2(O)[C@@]3(C)[C@@H](O)CCC(C)(C)[C@@H]3[C@H](O)[C@H](OC(C)=O)[C@@]2(C)O1 [forskolin]
Drp1 S637 phosphorylation: increased Drp1 S637 phosphorylation
